Source: PubChem BioAssay AID1662 (Broad Institute, 2009)
Screen size: about 300,000 compounds; about 4,000 (1.3%) were called active. The inconclusive results got no clear call from the source; some entries with a clear call stand among them for comparison.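 The calls were made as follows: active = mean replicate score, as percent of positive control median, at least 50; inconclusive = mean below 50 but one replicate at or above 50; inactive = mean and every replicate below 50.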

Experiment: kanamycin survival loss of SKKanGAS strain – BacTiter-Glo luminescence, streptokinase expression inhibitor project, primary screen (AID 1662);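 also: strain carries kanamycin resistance gene driven by streptokinase promoter and grows in 40 µg/ml kanamycin; loss of luminescence reflects streptokinase promoter inhibition or plain growth inhibition; 0% = median of DMSO wells and 100% = positive control at its reference dose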
Conditions: S. pyogenes SKKanGAS, kanamycin growth, 6 h, at 7.5 µM, active compounds read high

| Structure (SMILES) | inhibition |
| --- | --- |
| COc1ccc(-c2c(C)n([O-])c3c([n+]2=O)CCCC3)cc1 | inactive: 11.6% |
| Fc1ccc(Br)cc1C1C=C(c2ccc(Br)s2)Nc2ncnn21 (centres undefined) | inconclusive: 48.5% |
| O=c1[nH]cnc(O)c1C(c1ccc2c(c1)OCO2)c1c(O)nc[nH]c1=O | inactive: -9.51% |
| CCCN(CCC)C(=O)c1cc2c(=O)n3cccc(C)c3nc2s1 | inactive: -3.2% |
| CC1(C)CC(NC(=O)c2ccc(Cl)c(Cl)c2)CC(C)(C)N1 | inactive: -1.61% |
| COc1ccc2[nH]c3c(Cl)ncnc3c2c1 | inactive: -2.76% |
| CC1CCN(c2nc3ccc(C(=O)NCCCN4CCCCC4C)cc3s2)CC1 (centres undefined) | inactive: -0.117% |
| Cc1ccc(C(=O)c2c(C)oc3c2C(=O)C(=O)c2ccccc2-3)cc1 | active: 92.5% |
| O=C(O)CCCN1C(=O)/C(=C\c2ccccc2OCc2ccccc2)SC1=S | inconclusive: 47.8% |
| FC(F)(F)c1cccc(NC(=S)Nc2ccc(Cl)cc2Cl)c1 | inconclusive: 41% |
| CCn1nnc(NC(=S)NC(=O)c2ccc(-c3cccc(Cl)c3)o2)n1 | inactive: -6.22% |
| Cc1noc(C)c1CSc1nc2sc(C)c(C)c2c(=O)n1C1CCCC1 | inconclusive: 48.3% |
| COc1cc(/C=C2/CC/C(=C/c3ccc(O)c(OC)c3)C2=O)ccc1O | inconclusive: 49.1% |
| COc1ccc(Cl)cc1C(=O)NNC(=S)NC(=O)/C=C/c1ccco1 | active: 80.2% |
| Cc1ccc(S(=O)(=O)Nc2cccc3cccnc23)c([N+](=O)[O-])c1 | inconclusive: 47.8% |
| CC(C)C[C@H](NC(=O)N1CC(=O)Nc2ccccc21)C(=O)N[C@H](C(=O)O)c1ccccc1 | active: 62.5% |
| COc1ccc(OCC#CCNC(C)(C)C)cc1 | inactive: -1.72% |
| Cc1cc(C)cc(NC(=S)NC2CC3CCCC(C2)N3C2CC2)c1 (centres undefined) | inactive: -6.88% |
| Oc1c(Br)cc(Br)cc1CNc1ccc(F)cc1 | inconclusive: 44.9% |
| CCC(C(=O)OCC(=O)N1C(C)CCCC1C)c1ccccc1 (centres undefined) | inactive: -0.498% |

| Structure (SMILES) | inhibition |
| --- | --- |
| CCOC(=O)C1=C(C)NC(=O)NC1c1ccc([N+](=O)[O-])o1 (centres undefined) | inactive: 5.27% |
| O=C(/C=C/c1ccccc1)c1ccc2c(c1)OCO2 | inactive: -1.72% |
| COc1ccccc1C(=O)NNC(=O)c1sccc1-n1cccc1 | inactive: -4.01% |
| CC(=O)NC(=S)NNC(=O)c1ccc(Br)cc1 | active: 79% |
| CC(C)CC(NC(=O)C(NC(=O)C1OC2OC(C)(C)OC2C2OC(C)(C)OC12)C(C)C)C(=O)O (centres undefined) | inactive: -11.3% |
| O=C(CCl)Nc1cccc(-c2cnc3ccccc3n2)c1 | inactive: 5.38% |
| COc1ccc(-c2cc(-c3cc(C)ccc3O)[nH]n2)cc1 | inconclusive: 46.2% |
| O=C(CNC(=O)c1ccc(F)cc1)N/N=C/c1cc(Br)ccc1OCc1ccccc1 | inconclusive: 46.9% |
| CC1C/C(=N\NC(=S)NCc2ccccc2)CC(C)(C)C1 (centres undefined) | inconclusive: 49.2% |
| COc1ccc(C(C)(C)C)cc1NC(=O)c1cncc(Br)c1 | inactive: -11.9% |
| O=C(N/N=C/C=C/c1ccccc1)c1cccs1 | inactive: 11.4% |
| CCOc1ccc(CCNC(=O)c2cc3sc(Cl)cc3n2C)cc1OCC | inconclusive: 49% |
| Cc1noc(C)c1CSc1nc2sc(C)c(C)c2c(=O)n1-c1ccccc1 | inconclusive: 47.5% |
| CCc1ccc(NC(=O)Nc2cnccn2)cc1 | inconclusive: 40.4% |
| Cc1ccc(S(=O)(=O)N(C)CC(=O)N2CC(C)OC(C)C2)cc1 (centres undefined) | inconclusive: 45.5% |
| COc1ccc(NC(=O)[C@H](C)NC(=O)C2CCN(S(=O)(=O)c3ccc(C)cc3)CC2)cc1OC | inactive: 8% |
| Cc1ccc(NC(=S)Nc2ccc(OC(F)F)c(Cl)c2)cc1F | inconclusive: 23.9% |
| CN(CC1CCCO1)S(=O)(=O)c1ccc(C(=O)Nc2ccccc2F)cc1 (centres undefined) | inconclusive: 46.9% |
| Cc1ccc(/C=C/C(=O)c2ccccc(=O)c2O)cc1C | active: 96.9% |
| CC1(C)Cc2c(cnn2-c2ccccc2)-c2c1c1ccccc1n2CC(O)CCl (centres undefined) | active: 63.6% |

| Structure (SMILES) | inhibition |
| --- | --- |
| Cc1ccc2c(c1)-c1c(ssc1=S)C(C)(C)N2C(=O)CSC1=NCCS1 | inactive: -1.96% |
| CCC(=O)N1CCCC(C(=O)c2ccc(-c3ccccc3)cc2)C1 (centres undefined) | inactive: 12.3% |
| CCCCN(CC)CCNC(=S)Nc1ccc2nc(N3CCN(C)CC3)cc(C)c2c1 | inactive: -2.35% |
| C[C@]12CC[C@@H]3c4ccc(OC(=O)c5ccccc5)cc4CC[C@H]3[C@@H]1CC[C@@H]2O | active: 84.2% |
| N#CC1=C(N)Oc2cc(N)ccc2C1c1ccccc1F (centres undefined) | inactive: 6.12% |
| Cc1ccc(-c2nc3[nH]c(=O)cc(NC(=O)c4cccs4)n3n2)cc1 | inconclusive: 47.8% |
| COc1ccccc1NC(=O)c1ccc2c(c1)nnn2C | inactive: -0.0586% |
| Cc1c(Cl)cccc1NC(=O)N1CCCN(c2nc(-c3ccccc3)ns2)CC1 | inactive: 3.45% |
| CC12CCC(C(=O)NNC(=O)c3ccccc3)(OC1=O)C2(C)C (centres undefined) | inconclusive: 36% |
| O=[N+]([O-])c1ccccc1S(=O)(=O)Nc1cccc2cccnc12 | inconclusive: 39.5% |
| CCOC(=O)c1c(C)n(C)c2c1cc(OC(C)=O)c1ccccc12 | inactive: -9.74% |
| NC(=O)CSc1nccn1Cc1ccccc1 | inactive: -5.27% |
| CCOc1ccccc1OC(=O)c1cc2ccccc2oc1=O | inactive: 8.98% |
| Cc1nc(SCC(=O)c2cccs2)c2oc3ccccc3c2n1 | inconclusive: 48.8% |
| CC(=O)NC(=S)Nc1ccc(NC(=S)NC(=O)c2cccs2)cc1 | inconclusive: 31.1% |
| O=C(Nc1ccc(C(F)(F)F)cc1)c1cc(S(=O)(=O)NCC2COc3ccccc3O2)ccc1F (centres undefined) | inconclusive: 45% |
| Cc1onc(-c2ccccc2)c1C(=O)NC(C)c1ccc2c(c1)OCO2 (centres undefined) | inactive: -3.33% |
| O=C(Nc1ccc(N2CCN(C(=O)c3ccccc3)CC2)c(Cl)c1)c1cccnc1 | inconclusive: 44.3% |
| Cc1ccc2nc(-c3ccc(NC(=O)CNC4CC4)cc3)sc2c1 | inconclusive: 48.7% |

Look-ups from the entries so far:
CCCCN(CC)CCNC(=S)Nc1ccc2nc(N3CCN(C)CC3)cc(C)c2c1 – inhibition: inactive: -2.35%
Cc1onc(-c2ccccc2)c1C(=O)NC(C)c1ccc2c(c1)OCO2 (centres undefined) – inhibition: inactive: -3.33%
